# Laboratory results: PubChem BioAssay AID2685 (National Center for Advancing Translational Sciences (NCATS), 2010)
# Some of the results follow. Further columns of the screen follow, without active or inactive calls. Most of these compounds were active or inconclusive in the main read-out, so they are no random draw. Potencies come from curve fits of mixed quality, noted in brackets.
# Assay: qHTS Assay for Lipid Storage Modulators in Drosophila S3 Cells;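 for cell number change: cells counted by Cell Tracker Red CMTPX staining in the red channel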
# Conditions: BODIPY lipid droplet fluorescence, 18-24 h; for cell number change: measured here: cell count max response, cells fed with added oleic acid
# Summary of the method: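 Drosophila S3 cells loaded with oleic acid (400 uM, as added) and compounds at several concentrations; lipid droplets imaged by 488-nm laser-scanning cytometry, 500–530 nm intensity and object ratio to cell channel. Percent activity normalized to 20 uM Triacsin C.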
# [1] = measured here: cell number channel AC50, cells fed with added oleic acid
# [2] = measured here: lipid fluorescence (Fed channel) AC50, cells fed with added oleic acid
SMILES,cell number change [%],AC50 [1],AC50 [2]
Nc1cccc(-c2nc3ccccc3s2)c1,18.5,"2.06 µM [rising, partial curve]","20.6 µM [rising, partial curve]"
COC(=O)CNC(=O)COC(=O)/C=C/c1ccc(F)cc1,-12.7,"0.58 µM [rising, full curve]",–
COc1ccc(Cn2nnnc2C(c2cc3cccc(C)c3[nH]c2=O)N2CCOCC2)cc1 (stereo not drawn),44.7,"14.6 µM [rising, partial curve]","23.1 µM [rising, partial curve]"
Cc1cccc(C)c1NC(=O)c1cnn(-c2ccccc2)c1C,1.06,–,–
O=C(NC(Cc1c[nH]c2ccccc12)C(=O)O)/C(=C/c1ccc(F)cc1)NC(=O)c1ccccc1 (stereo not drawn),0.362,–,"0.731 µM [falling, single point]"
CCOC(=O)N1CCN(C(=O)C2CCC(=O)N2C(C)C)CC1 (stereo not drawn),-7.1,–,–
O=C(COC(=O)CCC(=O)c1ccc(F)cc1)Nc1ccc(N2CCOCC2)cc1,-20.3,"0.82 µM [falling, full curve]","2.59 µM [falling, full curve, poor fit]"
N#Cc1ccccc1OCc1nnc(-c2ccccc2Br)o1,45.4,"18.4 µM [rising, single point]",–
CN(C)c1ccc(/C=N/NC(=O)c2ccco2)cc1,13.5,–,–
Cc1cccc(NC(=O)Cn2nnc(C(=O)NCc3ccco3)c2N)c1,35.1,"0.517 µM [rising, full curve, poor fit]","3.26 µM [rising, partial curve]"
N#CCCN(C(=O)COc1ccc(F)cc1Br)c1ccccc1F,35,"29.1 µM [rising, single point]",–
CC1CCN(C(=O)C2CCN(c3nnc(-n4cccc4)s3)CC2)CC1,–,–,"6.51 µM [rising, single point]"
CC(C)OC(=O)[C@H]1[C@H](c2ccc(Cl)cc2)[C@@](C#N)(C(N)=O)[C@@H]2C=CC(C(N)=O)=CN21,63.1,"29.1 µM [rising, single point]","29.1 µM [rising, single point]"
CC(C)(C)c1ccc(C(=O)Nc2ccc(Oc3cccnc3)nc2)cc1,-49.1,"29.1 µM [falling, single point]","29.1 µM [falling, partial curve, poor fit]"
CN1CCN(c2ccccc2NC(=O)c2cc(Br)ccc2Cl)CC1,6.61,–,"29.1 µM [falling, single point]"
CC(C)(C)OC(=O)N1Cc2[nH]c3ccccc3c2C[C@@H]1C(=O)O,-18.3,–,"5.17 µM [rising, full curve, poor fit]"
COc1ccc2c(=O)cc(-c3ccccc3)n(C)c2c1,25.8,–,"8.2 µM [rising, full curve, poor fit]"
COc1ccc(-n2cnnc2SCC(=O)Nc2cc(S(=O)(=O)N3CCCCC3)ccc2C)cc1,-49.8,–,"6.51 µM [rising, partial curve]"
Cc1ccc(CNC(=O)CSc2nc3ccccc3[nH]2)cc1,–,–,"6.51 µM [rising, single point]"
O=C(NC(=S)N1CCN(c2ccc(O)cc2)CC1)c1cccs1,16.5,"0.13 µM [falling, full curve, poor fit]",–
C/C(=N\Nc1cccc2cccnc12)c1ccccc1O,32,–,–
C=CCn1c(COc2ccc(F)cc2)nnc1SCC(=O)c1c[nH]c2c(CC)cccc12,-24.4,–,"23.1 µM [falling, partial curve, poor fit]"
CCOC(=O)c1ccccc1Cc1nc2ccccc2c(=O)[nH]1,-0.29,"3.26 µM [rising, partial curve]","2.59 µM [rising, partial curve, poor fit]"
CCOC(=O)Cc1csc(NC(=O)C2C3C=CC(C3)C2C(=O)O)n1 (stereo not drawn),1.39,–,"18.4 µM [falling, single point]"
O=c1c(Br)c(Br)cnn1-c1ccccc1,-7.69,–,–
CCNC(=O)OCC(CC)NC(=O)OCC(C)C (stereo not drawn),-41.6,"20.6 µM [falling, single point]",–
Cc1ccccc1N1C(=O)C2C3CC(=O)C(c4ccccc43)C2C1=O (stereo not drawn),-2.4,–,"2.59 µM [falling, partial curve]"
COc1ccc(CCNC(=O)CC2Nc3ccccc3NC2=O)cc1OC (stereo not drawn),-10.9,–,–
CCC(C)c1ccccc1NC(=O)COc1ccc(-c2nnco2)cc1 (stereo not drawn),22.9,–,–
O=C(Nc1nc2ccc(S(=O)(=O)N3CCCC3)cc2s1)c1ccco1,-1.84,–,"6.51 µM [falling, single point]"

# Looked up above.
# CN1CCN(c2ccccc2NC(=O)c2cc(Br)ccc2Cl)CC1 | cell number change [%]: 6.61
# COc1ccc2c(=O)cc(-c3ccccc3)n(C)c2c1 | cell number change [%]: 25.8
